Some of the results follow. The main result of the screen is listed elsewhere. These columns were measured beside it and carry no call. Compounds called inactive in the main read-out are mostly missing here. The note in brackets gives the kind of curve behind each potency; many fits are weak.
Assay: qHTS Assay for Lipid Storage Modulators in Drosophila S3 Cells;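 on cell number change: cells counted by Cell Tracker Red CMTPX staining in the red channel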
Settings: BODIPY lipid droplet fluorescence, 18-24 h; for cell number change: measured here: cell count max response, cells fed with added oleic acid
Procedure, shortened: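 Drosophila S3 cells loaded with oleic acid (400 uM, as added) and compounds at several concentrations; lipid droplets imaged by 488-nm laser-scanning cytometry, 500–530 nm intensity and object ratio to cell channel. Percent activity normalized to 20 uM Triacsin C.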

[1] = measured here: cell number channel AC50, cells fed with added oleic acid
[2] = measured here: lipid fluorescence (Fed channel) AC50, cells fed with added oleic acid

| Structure (SMILES) | cell number change | AC50 [1] | AC50 [2] |
| --- | --- | --- | --- |
| O=C(CC1CCCCC1)NCCOc1ccccc1 | 53.7% | 11600 nM [rising, partial curve, poor fit] | 23100 nM [rising, partial curve] |
| CCC(C)[C@H](NC(=O)N1CCCC1)C(=O)O (stereo partly specified) | 22.7% | 4610 nM [rising, partial curve] | 2310 nM [rising, partial curve] |
| CC(C)n1nc(C(=O)NC2CCCCCC2)c2ccccc2c1=O | -18% |  | 4.61 nM [falling, full curve, poor fit] |
| Cc1cc(C)n(-c2ncnc3sc(C)c(C)c23)n1 | -76% | 25900 nM [falling, partial curve, poor fit] | 16400 nM [falling, partial curve, poor fit] |
| CNC(=O)c1cccc(NC(=O)c2cc(-c3ccccc3)nc3c2cnn3C(C)C)c1 | -75.6% | 11600 nM [falling, partial curve] |  |
| Cc1cc([N+](=O)[O-])nn1CC(=O)NNC(=S)Nc1ccc(F)cc1 | -13.8% |  | 164 nM [rising, full curve, poor fit] |
| Cc1ccc(S(=O)(=O)n2c([N+](=O)[O-])cnc2C)c(C)c1C | -31.2% | 29100 nM [falling, single point] |  |
| CC(C)Oc1ccc(Cc2cnc(N)nc2N)cc1 | 81.9% | 20600 nM [rising, single point] |  |
| Cc1ccc(OCc2nnc(SCc3ccc(C#N)cc3)n2-c2ccc(C)cc2)cc1 | -0.809% | 366 nM [rising, full curve] |  |
| Cn1cc2cc(NC(N)=S)ccc2n1 | 37.4% |  |  |
| O=C(NCc1ccccc1Cl)c1cnc2ccccc2n1 | 4.62% |  |  |
| CC(C)(C)c1cc[n+](C2=C([O-])c3ccccc3C(=O)/C2=N\S(=O)(=O)c2ccccc2)cc1 | -28.8% |  | 18400 nM [falling, single point] |
| COc1ccc(N2CCN(C(=O)COC(=O)c3ccc(CSC)o3)CC2)cc1 | -3.81% |  | 580 nM [falling, full curve, poor fit] |
| CCCN(CCC)Cc1c(C(=O)N/N=C/c2ccoc2)nnn1-c1nonc1N | 12.9% |  | 517 nM [rising, partial curve] |
| O=C(Nc1ccccc1)Nc1c(F)cccc1F | -17.5% |  | 29100 nM [falling, single point] |
| Cc1nc(N2CCN(Cc3ccccc3)CC2)nc2c1CCC2 | 13.6% |  | 1300 nM [rising, full curve, poor fit] |
| CC(=O)Nc1ccc(OCC(O)Cn2nc(C)nc2C)cc1 (stereo unspecified) | -43.6% | 8200 nM [falling, partial curve] | 8200 nM [falling, partial curve] |
| O=C(c1cc(Cl)cc(Cl)c1)N1CCC(=O)N(C(COCc2ccccc2)Cc2ccccc2)CC1 (stereo unspecified) | -1.54% |  | 4110 nM [rising, partial curve] |
| O=C(O)CC12CC3CC(C1)CC(n1ncc(NCc4ccco4)c(Cl)c1=O)(C3)C2 | -14.8% |  |  |
| Cc1ccsc1/C=N/N1CCN(c2ccccc2)CC1 | 5.5% |  | 3660 nM [rising, single point] |

Part of the list above, with bars between the fields:
Structure (SMILES) | cell number change | AC50 [1] | AC50 [2]
Cc1ccc(OCc2nnc(SCc3ccc(C#N)cc3)n2-c2ccc(C)cc2)cc1 | -0.809% | 366 nM [rising, full curve] | 
Cn1cc2cc(NC(N)=S)ccc2n1 | 37.4% |  | 

Continuation.

| Structure (SMILES) | cell number change | AC50 [1] | AC50 [2] |
| --- | --- | --- | --- |
| CC(=O)c1cccc(NC(=O)N2C3CCC2CC(NC(=O)Nc2ccccc2)C3)c1 (stereo unspecified) |  |  | 184 nM [rising, partial curve, poor fit] |
| Cc1cc(Cl)ccc1OCC(=O)Nc1cccc(S(=O)(=O)N2CCCC2)c1 | 17.6% |  | 580 nM [rising, full curve, poor fit] |
| Cc1cc(C)n(C(C)CNS(=O)(=O)c2ccc(C)c(C)c2)n1 (stereo unspecified) | 24.8% |  |  |
| CCCc1ccc(OCc2ccc(C(=O)N3CCN(c4ccccn4)CC3)o2)c(OC)c1 |  | 580 nM [falling, single point] | 580 nM [falling, single point] |
| CC(C)(C)c1ccc(OCC(=O)N/N=C/c2ccsc2)cc1 | -26.2% |  |  |
| O=C(Nc1cccc(F)c1)Nc1c[nH]c(=O)[nH]c1=O | -13.9% |  |  |
| CC(C)C[C@H](NC(=O)N1CCn2c1nc1ccccc12)C(=O)N1CCCCC1 | 11% |  |  |
| O=C(Nc1ccc(N2CCN(C(=O)c3cccs3)CC2)cc1)c1cccnc1 | -14.2% | 5.17 nM [falling, full curve, poor fit] | 4.61 nM [falling, full curve, poor fit] |
| CCCN1CNC(=S)N(CC2CCCO2)C1 (stereo unspecified) | 16.7% | 731 nM [falling, full curve] |  |
| CCCN(CCC)C(C(=O)Nc1cccc(OC)c1)c1ccccc1 (stereo unspecified) | -11.9% |  | 116 nM [falling, single point] |
| N#Cc1ccccc1/C=N/Nc1nc(-c2ccccc2)c2cc(Cl)ccc2n1 | -7.53% |  |  |
| Cc1cc(C(F)F)n2ncc(C(=O)NCc3ccccc3)c2n1 | -13.4% |  | 20600 nM [rising, single point] |
| CCc1cccc(CC)c1-n1c(SCn2nnc3ccccc3c2=O)nnc1-c1cccnc1 | 41.1% | 29100 nM [rising, single point] | 6510 nM [rising, partial curve] |
| O=C(C[n+]1cc[nH]c1)c1ccc(Cl)cc1 | 3.16% |  | 580 nM [falling, single point] |
| Cc1nc2c(-c3ccc(F)cc3)c(C)nn2c(C)c1CCC(=O)N1CCOCC1 | -4.78% |  | 731 nM [rising, full curve] |
| COc1cccc(-c2nc(CS(=O)(=O)CC(=O)NCCCN3CCN(C)CC3)c(C)o2)c1 | 2.75% |  | 10300 nM [rising, partial curve] |
| COc1cccc(C(=O)COC(=O)c2cccs2)c1 | 3.47% |  | 5.17 nM [falling, full curve, poor fit] |
| COC(=O)CCC(=O)c1oc2ccccc2c1NC(=O)CCCN1C(=O)c2ccccc2C1=O | -33.3% |  | 146 nM [falling, full curve, poor fit] |
| COc1ccc(-c2nc(C(=O)O)cs2)cc1OC | -30.2% | 58 nM [falling, full curve, poor fit] | 291 nM [falling, partial curve, poor fit] |

Reference: PubChem BioAssay AID2685 (National Center for Advancing Translational Sciences (NCATS), 2010)
